Reference: the supplement of paper PMC10849652
The list shows a part of the results.

Sequences of proteins named here, by UniProt entry; tags and fusion partners are left off. A change or cut given only in a name is not applied to a line headed by its entry.
UniProt Q9BRT6: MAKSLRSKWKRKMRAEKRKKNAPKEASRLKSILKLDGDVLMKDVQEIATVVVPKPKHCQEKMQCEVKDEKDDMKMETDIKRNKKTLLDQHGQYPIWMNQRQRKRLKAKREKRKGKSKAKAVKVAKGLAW
UniProt O75427: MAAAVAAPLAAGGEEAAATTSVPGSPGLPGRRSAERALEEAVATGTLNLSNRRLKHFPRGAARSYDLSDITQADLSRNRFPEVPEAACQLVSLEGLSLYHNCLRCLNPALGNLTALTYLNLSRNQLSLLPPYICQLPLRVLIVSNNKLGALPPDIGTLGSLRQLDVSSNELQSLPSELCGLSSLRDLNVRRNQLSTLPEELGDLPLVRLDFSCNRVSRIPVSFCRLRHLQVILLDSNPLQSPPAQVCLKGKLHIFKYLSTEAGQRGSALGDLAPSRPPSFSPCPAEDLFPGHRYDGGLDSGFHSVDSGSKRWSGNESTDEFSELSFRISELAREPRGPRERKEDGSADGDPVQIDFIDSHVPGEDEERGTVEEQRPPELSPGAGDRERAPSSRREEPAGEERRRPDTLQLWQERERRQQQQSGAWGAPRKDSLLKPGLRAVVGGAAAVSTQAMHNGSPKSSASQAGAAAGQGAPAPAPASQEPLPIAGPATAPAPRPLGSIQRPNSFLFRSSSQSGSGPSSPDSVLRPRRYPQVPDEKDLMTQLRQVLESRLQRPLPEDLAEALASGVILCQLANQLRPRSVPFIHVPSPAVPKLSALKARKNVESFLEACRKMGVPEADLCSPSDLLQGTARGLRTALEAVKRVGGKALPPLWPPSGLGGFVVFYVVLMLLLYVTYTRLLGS
UniProt Q6ZUX7: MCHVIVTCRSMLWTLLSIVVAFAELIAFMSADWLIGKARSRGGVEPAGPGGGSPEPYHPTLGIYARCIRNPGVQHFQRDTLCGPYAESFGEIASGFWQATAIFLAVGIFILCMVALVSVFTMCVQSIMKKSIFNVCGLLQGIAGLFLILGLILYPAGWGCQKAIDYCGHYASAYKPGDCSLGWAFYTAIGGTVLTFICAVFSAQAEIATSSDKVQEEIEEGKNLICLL
UniProt Q9UGP4: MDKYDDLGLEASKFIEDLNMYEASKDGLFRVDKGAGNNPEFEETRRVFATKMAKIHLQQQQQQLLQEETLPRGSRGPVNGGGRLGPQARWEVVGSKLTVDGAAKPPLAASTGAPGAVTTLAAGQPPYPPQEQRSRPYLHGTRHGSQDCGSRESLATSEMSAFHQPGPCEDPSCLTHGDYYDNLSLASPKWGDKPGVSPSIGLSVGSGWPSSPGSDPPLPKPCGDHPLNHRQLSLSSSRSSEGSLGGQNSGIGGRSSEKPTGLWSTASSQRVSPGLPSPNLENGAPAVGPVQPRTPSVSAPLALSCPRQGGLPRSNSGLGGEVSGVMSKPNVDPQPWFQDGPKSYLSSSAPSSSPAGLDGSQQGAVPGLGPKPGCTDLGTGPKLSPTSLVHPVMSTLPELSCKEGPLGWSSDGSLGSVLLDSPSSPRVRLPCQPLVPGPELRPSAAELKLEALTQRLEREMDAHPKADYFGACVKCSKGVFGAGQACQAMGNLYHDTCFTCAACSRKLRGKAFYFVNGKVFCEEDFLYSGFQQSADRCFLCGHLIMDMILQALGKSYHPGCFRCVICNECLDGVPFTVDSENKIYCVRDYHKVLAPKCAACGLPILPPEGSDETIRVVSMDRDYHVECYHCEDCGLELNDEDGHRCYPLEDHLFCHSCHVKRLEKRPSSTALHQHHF
UniProt P23490: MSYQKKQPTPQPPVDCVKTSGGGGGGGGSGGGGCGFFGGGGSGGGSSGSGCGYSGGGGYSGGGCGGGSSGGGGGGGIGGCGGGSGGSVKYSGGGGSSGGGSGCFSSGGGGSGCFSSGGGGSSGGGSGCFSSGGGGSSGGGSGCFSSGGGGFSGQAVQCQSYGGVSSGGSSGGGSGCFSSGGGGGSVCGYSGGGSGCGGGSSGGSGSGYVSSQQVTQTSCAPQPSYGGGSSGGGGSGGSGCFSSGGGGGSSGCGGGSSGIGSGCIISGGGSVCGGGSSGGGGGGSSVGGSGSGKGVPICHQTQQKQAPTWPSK
UniProt P62310: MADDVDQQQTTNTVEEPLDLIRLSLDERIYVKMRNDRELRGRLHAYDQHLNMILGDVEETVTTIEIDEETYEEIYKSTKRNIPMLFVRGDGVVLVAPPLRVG
UniProt P02545: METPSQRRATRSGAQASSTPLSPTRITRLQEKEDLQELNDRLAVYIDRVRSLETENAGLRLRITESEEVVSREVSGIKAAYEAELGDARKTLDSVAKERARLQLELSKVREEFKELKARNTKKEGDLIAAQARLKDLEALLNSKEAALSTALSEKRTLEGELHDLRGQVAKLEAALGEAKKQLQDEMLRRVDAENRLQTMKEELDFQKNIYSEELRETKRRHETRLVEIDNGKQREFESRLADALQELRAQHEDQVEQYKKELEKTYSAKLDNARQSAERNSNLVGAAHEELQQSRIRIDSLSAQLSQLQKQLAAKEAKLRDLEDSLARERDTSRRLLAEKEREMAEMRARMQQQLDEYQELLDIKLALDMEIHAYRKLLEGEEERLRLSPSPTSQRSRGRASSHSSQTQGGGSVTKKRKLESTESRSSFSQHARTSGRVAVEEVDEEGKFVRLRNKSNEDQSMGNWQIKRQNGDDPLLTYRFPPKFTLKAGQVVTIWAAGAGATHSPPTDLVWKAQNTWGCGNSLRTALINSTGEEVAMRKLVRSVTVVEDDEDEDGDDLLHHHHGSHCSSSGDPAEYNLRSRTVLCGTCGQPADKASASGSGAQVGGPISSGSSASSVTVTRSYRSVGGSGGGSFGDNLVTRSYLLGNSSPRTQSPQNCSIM
UniProt Q9BT23: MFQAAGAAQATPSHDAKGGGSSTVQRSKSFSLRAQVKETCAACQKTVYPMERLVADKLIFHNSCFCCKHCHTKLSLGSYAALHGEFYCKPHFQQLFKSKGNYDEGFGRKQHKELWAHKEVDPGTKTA
UniProt Q9NT99: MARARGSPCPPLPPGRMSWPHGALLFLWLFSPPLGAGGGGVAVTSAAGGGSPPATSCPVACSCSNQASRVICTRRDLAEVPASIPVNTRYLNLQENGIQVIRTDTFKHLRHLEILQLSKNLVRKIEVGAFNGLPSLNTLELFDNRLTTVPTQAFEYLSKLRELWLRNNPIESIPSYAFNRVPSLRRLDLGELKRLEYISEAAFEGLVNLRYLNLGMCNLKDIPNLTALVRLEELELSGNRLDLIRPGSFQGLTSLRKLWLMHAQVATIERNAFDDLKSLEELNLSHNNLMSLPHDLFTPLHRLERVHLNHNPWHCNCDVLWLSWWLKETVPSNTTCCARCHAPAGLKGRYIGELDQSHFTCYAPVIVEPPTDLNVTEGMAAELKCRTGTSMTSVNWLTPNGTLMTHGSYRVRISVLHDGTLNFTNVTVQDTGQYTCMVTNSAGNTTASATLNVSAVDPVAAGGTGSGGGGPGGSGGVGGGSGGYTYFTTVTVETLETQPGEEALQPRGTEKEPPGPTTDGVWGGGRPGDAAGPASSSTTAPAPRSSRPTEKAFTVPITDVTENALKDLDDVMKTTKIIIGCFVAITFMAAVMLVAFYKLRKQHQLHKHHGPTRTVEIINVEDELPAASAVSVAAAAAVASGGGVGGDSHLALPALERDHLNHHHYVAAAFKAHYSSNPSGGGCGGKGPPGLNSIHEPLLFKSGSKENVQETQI
UniProt Q6UWE0: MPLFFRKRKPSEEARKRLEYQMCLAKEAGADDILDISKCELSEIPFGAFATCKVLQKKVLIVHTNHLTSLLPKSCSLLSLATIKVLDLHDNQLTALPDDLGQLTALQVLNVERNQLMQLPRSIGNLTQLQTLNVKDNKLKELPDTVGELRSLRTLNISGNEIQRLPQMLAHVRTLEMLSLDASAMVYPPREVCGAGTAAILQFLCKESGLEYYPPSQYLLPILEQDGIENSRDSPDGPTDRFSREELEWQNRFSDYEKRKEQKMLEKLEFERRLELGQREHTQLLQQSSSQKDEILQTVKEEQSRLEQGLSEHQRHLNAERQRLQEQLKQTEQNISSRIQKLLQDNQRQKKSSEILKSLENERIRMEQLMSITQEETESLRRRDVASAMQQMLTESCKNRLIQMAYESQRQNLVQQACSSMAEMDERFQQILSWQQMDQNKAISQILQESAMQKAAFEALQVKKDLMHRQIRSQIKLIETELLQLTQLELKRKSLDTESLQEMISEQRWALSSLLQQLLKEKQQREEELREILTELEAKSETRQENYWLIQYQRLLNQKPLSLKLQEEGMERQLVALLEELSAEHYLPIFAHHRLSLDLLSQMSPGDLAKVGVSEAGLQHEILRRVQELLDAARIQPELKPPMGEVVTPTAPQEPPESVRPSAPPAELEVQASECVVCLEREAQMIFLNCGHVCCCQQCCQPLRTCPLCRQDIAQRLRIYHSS
UniProt Q8TCA0: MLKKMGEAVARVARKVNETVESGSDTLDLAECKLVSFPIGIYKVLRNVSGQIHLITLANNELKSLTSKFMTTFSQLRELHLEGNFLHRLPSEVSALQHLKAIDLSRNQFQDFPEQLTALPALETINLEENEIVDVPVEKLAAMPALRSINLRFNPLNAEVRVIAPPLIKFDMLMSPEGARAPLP
UniProt Q9H9A6: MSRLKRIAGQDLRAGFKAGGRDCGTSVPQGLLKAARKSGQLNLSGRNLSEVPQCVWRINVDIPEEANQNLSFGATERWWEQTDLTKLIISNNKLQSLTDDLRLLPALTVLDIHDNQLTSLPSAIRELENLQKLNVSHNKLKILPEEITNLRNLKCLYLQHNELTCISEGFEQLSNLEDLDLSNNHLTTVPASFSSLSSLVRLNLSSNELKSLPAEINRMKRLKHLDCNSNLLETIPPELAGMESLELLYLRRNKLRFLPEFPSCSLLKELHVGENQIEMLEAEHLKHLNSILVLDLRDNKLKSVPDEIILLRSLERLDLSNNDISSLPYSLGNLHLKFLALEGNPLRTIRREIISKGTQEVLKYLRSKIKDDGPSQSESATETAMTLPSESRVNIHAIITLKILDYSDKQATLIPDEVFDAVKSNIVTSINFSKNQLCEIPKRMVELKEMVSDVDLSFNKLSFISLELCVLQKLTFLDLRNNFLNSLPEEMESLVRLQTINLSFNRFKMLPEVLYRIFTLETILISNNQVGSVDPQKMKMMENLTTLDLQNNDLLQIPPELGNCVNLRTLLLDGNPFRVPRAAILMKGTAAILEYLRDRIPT
UniProt O95214: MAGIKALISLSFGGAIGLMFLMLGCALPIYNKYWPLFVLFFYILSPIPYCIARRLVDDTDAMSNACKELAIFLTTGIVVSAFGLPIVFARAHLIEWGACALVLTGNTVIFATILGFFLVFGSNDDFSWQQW
UniProt Q9P2J5: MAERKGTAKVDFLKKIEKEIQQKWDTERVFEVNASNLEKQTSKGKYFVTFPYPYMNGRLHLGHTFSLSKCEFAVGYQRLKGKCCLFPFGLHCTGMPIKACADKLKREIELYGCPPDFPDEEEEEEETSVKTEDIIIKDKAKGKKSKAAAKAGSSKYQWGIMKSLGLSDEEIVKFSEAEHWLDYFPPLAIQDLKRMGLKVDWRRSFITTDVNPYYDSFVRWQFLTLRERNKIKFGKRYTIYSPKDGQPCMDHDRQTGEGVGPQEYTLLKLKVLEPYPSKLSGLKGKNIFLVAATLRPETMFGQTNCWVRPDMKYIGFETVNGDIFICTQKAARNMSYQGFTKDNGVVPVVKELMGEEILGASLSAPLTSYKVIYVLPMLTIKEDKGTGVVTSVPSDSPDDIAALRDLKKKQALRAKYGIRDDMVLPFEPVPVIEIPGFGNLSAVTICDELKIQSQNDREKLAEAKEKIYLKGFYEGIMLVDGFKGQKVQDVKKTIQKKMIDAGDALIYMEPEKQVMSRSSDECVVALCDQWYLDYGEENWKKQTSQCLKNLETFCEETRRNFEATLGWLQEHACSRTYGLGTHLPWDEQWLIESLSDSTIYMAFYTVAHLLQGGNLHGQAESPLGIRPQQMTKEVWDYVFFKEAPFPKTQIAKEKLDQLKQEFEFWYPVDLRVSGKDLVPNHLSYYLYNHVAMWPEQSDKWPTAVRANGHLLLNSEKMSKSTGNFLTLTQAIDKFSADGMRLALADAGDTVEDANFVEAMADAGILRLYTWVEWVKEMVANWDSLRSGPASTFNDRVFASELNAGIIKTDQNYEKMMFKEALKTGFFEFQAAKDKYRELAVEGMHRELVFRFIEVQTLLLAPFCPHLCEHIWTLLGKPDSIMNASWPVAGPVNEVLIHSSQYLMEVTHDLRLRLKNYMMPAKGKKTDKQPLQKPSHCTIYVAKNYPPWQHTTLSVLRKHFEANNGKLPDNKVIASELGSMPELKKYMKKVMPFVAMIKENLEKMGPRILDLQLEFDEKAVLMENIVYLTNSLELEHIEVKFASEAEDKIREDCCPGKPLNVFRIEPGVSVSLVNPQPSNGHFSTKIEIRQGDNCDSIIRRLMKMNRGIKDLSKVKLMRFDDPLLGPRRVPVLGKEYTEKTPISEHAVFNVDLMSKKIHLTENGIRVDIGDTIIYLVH

Compound: C1=CC=C(C=C1)[C@H](COC2=CC3=C(C=C2)NC(=O)N3)NC(=O)C4=CC=CN(C4=O)CC5=CC(=C(C=C5)F)F
Test: log2 fold change, soluble protein after heating vs DMSO (PISA); higher = thermal stabilisation; K562 lysate, 10 uM; active = over 0.2 and 3.5 SD of the protein, either way, in both replicates (recomputed)
Procedure, shortened: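 Soluble protein was defined as the supernatant remaining after 21,000xg for 90 min, following pooling of heated aliquots and adjustment to 0.5% NP-40 at 4°C. Before that, crude K562 extract at 1 mg/mL protein in PBS pH 7.4 with 1 mM MgCl2 was treated with 10 μM compound for 30 min and heated for 3 min across 48°C-58°C. Quantification used TMTpro 16plex LC-MS/MS with channel sums equalised, and values are log-two fold changes in thermal stability relative to solvent controls from duplicates.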

Row | Target | log2 fold change
1 | LINS1 (UniProt Q8NG48) | inactive: 0.032
2 | LLPH (UniProt Q9BRT6) | inactive: -0.079
3 | LIPT2 (UniProt A6NK58) | inactive: 0.205
4 | LCLAT1 (UniProt Q6UWP7) | inactive: 0.032
5 | LSM14B (UniProt Q9BX40) | inactive: 0.005
6 | LIG4 (UniProt P49917) | inactive: -0.04
7 | LPCAT2 (UniProt Q7L5N7) | inactive: -0.054
8 | LRCH4 (UniProt O75427) | inactive: 0.045
9 | LIMS1 isoform 3 (UniProt P48059) | inactive: -0.006
10 | LHFPL2 (UniProt Q6ZUX7) | inactive: 0.055
11 | LSM14B isoform 2 (UniProt Q9BX40) | inactive: 0.073
12 | LIMD1 (UniProt Q9UGP4) | inactive: 0.037
13 | LOR (UniProt P23490) | inactive: -0.468
14 | LCP2 (UniProt Q13094) | inactive: 0.038
15 | LIN7C (UniProt Q9NUP9) | inactive: -0.033
16 | LSM3 (UniProt P62310) | inactive: 0.038
17 | LMNA (UniProt P02545) | inactive: -0.003
18 | LDAH isoform 2 (UniProt Q9H6V9) | inactive: -0.119
19 | LRRC47 (UniProt Q8N1G4) | inactive: 0.008

Row | Target | log2 fold change
20 | LLGL1 (UniProt Q15334) | inactive: 0.038
21 | LIMD2 (UniProt Q9BT23) | inactive: -0.09
22 | LIMK2 isoform 3 (UniProt P53671) | inactive: -0.022
23 | LDB1 (UniProt Q86U70) | inactive: 0.051
24 | LMNB1 (UniProt P20700) | inactive: -0.01
25 | LRRC41 (UniProt Q15345) | inactive: 0.019
26 | LRFN1 (UniProt Q9P244) | inactive: 0.038
27 | LRRC4B (UniProt Q9NT99) | inactive: 0.139
28 | LGALS8 isoform 2 (UniProt O00214) | inactive: -0.024
29 | LRSAM1 (UniProt Q6UWE0) | inactive: -0.009
30 | LMAN1 (UniProt P49257) | inactive: 0.027
31 | LDHC (UniProt P07864) | inactive: 0.264
32 | LRRC20 (UniProt Q8TCA0) | inactive: -0.053
33 | LIN37 (UniProt Q96GY3) | inactive: -0.066
34 | LRBA, A0A494BZW2 | inactive: 0.03
35 | LRRC40 (UniProt Q9H9A6) | inactive: 0.001
36 | LMTK2 (UniProt Q8IWU2) | inactive: 0.039
37 | LEPROTL1 isoform 2 (UniProt O95214) | inactive: -0.008
38 | LARS (UniProt Q9P2J5) | inactive: -0.02

Some of the entries above, reformatted.
Row	Target	log2 fold change
19	LRRC47 (UniProt Q8N1G4)	inactive: 0.008
21	LIMD2 (UniProt Q9BT23)	inactive: -0.09
32	LRRC20 (UniProt Q8TCA0)	inactive: -0.053
